{"source": "PubChem BioAssay AID1259405 | NCATS – 2018", "purpose": "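Knock-downs that lift recombinant protein yield in hamster ovary cells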 (primary screen)", "system": "Chinese hamster CHO-K1 ovary cells with stable secreted eGFP expression", "knock-down reagent": "single siRNA against mouse genes, 0.8 pmol siRNA per well (2 µl of 400 nM stock)", "timing": "3 days", "detection": "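Percent of the per-plate non-targeting control median for intracellular GFP per well by laser scanning cytometry and for cell viability by ATP luminescence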", "scale": "GFP, % of control: higher = more GFP per well, higher productivity; viability (ATP), % of control: higher = more viable cells (more ATP)", "call rule": "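Called active when intracellular GFP, relative to negative control, is at or above 120%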", "note": "Here is an unselected part of about 50,000 reagents. In the full data, about 4,000 (8%) were called active. 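Mouse siRNA library applied to hamster cells; one well for each siRNA.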"}
{"Gene":"Akap8 (A kinase anchor protein 8)","PubChem SID":"SID363568988","GFP, % of control":95.4,"viability (ATP), % of control":124,"Call":"inactive"}
{"Gene":"Akap8 (A kinase anchor protein 8)","PubChem SID":"SID363583420","GFP, % of control":58.2,"viability (ATP), % of control":81.9,"Call":"inactive"}
{"Gene":"Dusp4 (dual specificity phosphatase 4)","PubChem SID":"SID363573209","GFP, % of control":93.2,"viability (ATP), % of control":67.4,"Call":"inactive"}
{"Gene":"Dusp4 (dual specificity phosphatase 4)","PubChem SID":"SID363588448","GFP, % of control":72.9,"viability (ATP), % of control":80.2,"Call":"inactive"}
{"Gene":"Klhl6 (kelch-like 6)","PubChem SID":"SID363540269","GFP, % of control":55.8,"viability (ATP), % of control":78.1,"Call":"inactive"}
{"Gene":"Klhl6 (kelch-like 6)","PubChem SID":"SID363542021","GFP, % of control":83.1,"viability (ATP), % of control":89.4,"Call":"inactive"}
{"Gene":"Klhl6 (kelch-like 6)","PubChem SID":"SID363566937","GFP, % of control":55.9,"viability (ATP), % of control":91.5,"Call":"inactive"}
{"Gene":"Bcl7a (B cell CLL/lymphoma 7A)","PubChem SID":"SID363546873","GFP, % of control":65.1,"viability (ATP), % of control":60.8,"Call":"inactive"}
{"Gene":"Bcl7a (B cell CLL/lymphoma 7A)","PubChem SID":"SID363549685","GFP, % of control":90.1,"viability (ATP), % of control":94.3,"Call":"inactive"}
{"Gene":"Bcl7a (B cell CLL/lymphoma 7A)","PubChem SID":"SID363587739","GFP, % of control":99,"viability (ATP), % of control":124,"Call":"inactive"}
{"Gene":"Robo4 (roundabout guidance receptor 4)","PubChem SID":"SID363573314","GFP, % of control":57.3,"viability (ATP), % of control":58.4,"Call":"inactive"}
{"Gene":"Robo4 (roundabout guidance receptor 4)","PubChem SID":"SID363588553","GFP, % of control":89.5,"viability (ATP), % of control":82.2,"Call":"inactive"}
{"Gene":"Alyref2 (Aly/REF export factor 2)","PubChem SID":"SID363546054","GFP, % of control":88.9,"viability (ATP), % of control":46.8,"Call":"inactive"}
{"Gene":"Alyref2 (Aly/REF export factor 2)","PubChem SID":"SID363549567","GFP, % of control":94.1,"viability (ATP), % of control":92.5,"Call":"inactive"}
{"Gene":"Alyref2 (Aly/REF export factor 2)","PubChem SID":"SID363563373","GFP, % of control":31.8,"viability (ATP), % of control":33.5,"Call":"inactive"}
{"Gene":"C2cd2l (C2 calcium-dependent domain containing 2-like)","PubChem SID":"SID363556380","GFP, % of control":81.1,"viability (ATP), % of control":88.9,"Call":"inactive"}
{"Gene":"C2cd2l (C2 calcium-dependent domain containing 2-like)","PubChem SID":"SID363586830","GFP, % of control":82,"viability (ATP), % of control":111,"Call":"inactive"}
{"Gene":"C2cd2l (C2 calcium-dependent domain containing 2-like)","PubChem SID":"SID363588938","GFP, % of control":107,"viability (ATP), % of control":119,"Call":"inactive"}
{"Gene":"Tmem91 (transmembrane protein 91)","PubChem SID":"SID363542737","GFP, % of control":73.7,"viability (ATP), % of control":44.1,"Call":"inactive"}
{"Gene":"Tmem91 (transmembrane protein 91)","PubChem SID":"SID363546254","GFP, % of control":92.8,"viability (ATP), % of control":105,"Call":"inactive"}
{"Gene":"Tmem91 (transmembrane protein 91)","PubChem SID":"SID363548010","GFP, % of control":79.1,"viability (ATP), % of control":87.8,"Call":"inactive"}
{"Gene":"Pa2g4 (proliferation-associated 2G4)","PubChem SID":"SID363569209","GFP, % of control":120,"viability (ATP), % of control":122,"Call":"inactive"}
{"Gene":"Pa2g4 (proliferation-associated 2G4)","PubChem SID":"SID363583641","GFP, % of control":76.3,"viability (ATP), % of control":80.9,"Call":"inactive"}
{"Gene":"Ifi203 (interferon activated gene 203)","PubChem SID":"SID363555304","GFP, % of control":73.3,"viability (ATP), % of control":61.3,"Call":"inactive"}
{"Gene":"Ifi203 (interferon activated gene 203)","PubChem SID":"SID363563965","GFP, % of control":83.2,"viability (ATP), % of control":76.6,"Call":"inactive"}
{"Gene":"Ifi203 (interferon activated gene 203)","PubChem SID":"SID363587511","GFP, % of control":86.2,"viability (ATP), % of control":84.5,"Call":"inactive"}
{"Gene":"Erh (ERH mRNA splicing and mitosis factor)","PubChem SID":"SID363555452","GFP, % of control":65.3,"viability (ATP), % of control":89.3,"Call":"inactive"}
{"Gene":"Erh (ERH mRNA splicing and mitosis factor)","PubChem SID":"SID363564113","GFP, % of control":152,"viability (ATP), % of control":58,"Call":"active"}
{"Gene":"Erh (ERH mRNA splicing and mitosis factor)","PubChem SID":"SID363587659","GFP, % of control":83.6,"viability (ATP), % of control":83.4,"Call":"inactive"}
{"Gene":"Eya4 (EYA transcriptional coactivator and phosphatase 4)","PubChem SID":"SID363545725","GFP, % of control":96.5,"viability (ATP), % of control":91,"Call":"inactive"}
{"Gene":"Eya4 (EYA transcriptional coactivator and phosphatase 4)","PubChem SID":"SID363549238","GFP, % of control":129,"viability (ATP), % of control":80.1,"Call":"active"}
{"Gene":"Eya4 (EYA transcriptional coactivator and phosphatase 4)","PubChem SID":"SID363563044","GFP, % of control":66,"viability (ATP), % of control":68.8,"Call":"inactive"}
{"Gene":"Gabrb2 (gamma-aminobutyric acid type A receptor subunit beta 2)","PubChem SID":"SID363544069","GFP, % of control":85.3,"viability (ATP), % of control":97.1,"Call":"inactive"}
{"Gene":"Gabrb2 (gamma-aminobutyric acid type A receptor subunit beta 2)","PubChem SID":"SID363547100","GFP, % of control":57.8,"viability (ATP), % of control":79,"Call":"inactive"}
{"Gene":"Gabrb2 (gamma-aminobutyric acid type A receptor subunit beta 2)","PubChem SID":"SID363549912","GFP, % of control":92.4,"viability (ATP), % of control":112,"Call":"inactive"}
{"Gene":"Gabrb2 (gamma-aminobutyric acid type A receptor subunit beta 2)","PubChem SID":"SID363550397","GFP, % of control":62.4,"viability (ATP), % of control":76.7,"Call":"inactive"}
{"Gene":"Gabrb2 (gamma-aminobutyric acid type A receptor subunit beta 2)","PubChem SID":"SID363556946","GFP, % of control":79.8,"viability (ATP), % of control":95.1,"Call":"inactive"}
{"Gene":"Gabrb2 (gamma-aminobutyric acid type A receptor subunit beta 2)","PubChem SID":"SID363587966","GFP, % of control":118,"viability (ATP), % of control":131,"Call":"inactive"}
{"Gene":"Ccdc59 (coiled-coil domain containing 59)","PubChem SID":"SID363550068","GFP, % of control":89.7,"viability (ATP), % of control":102,"Call":"inactive"}
{"Gene":"Ccdc59 (coiled-coil domain containing 59)","PubChem SID":"SID363564577","GFP, % of control":101,"viability (ATP), % of control":63.9,"Call":"inactive"}
{"Gene":"Ccdc59 (coiled-coil domain containing 59)","PubChem SID":"SID363588122","GFP, % of control":118,"viability (ATP), % of control":87.5,"Call":"inactive"}
{"Gene":"Cplx2 (complexin 2)","PubChem SID":"SID363550041","GFP, % of control":50.4,"viability (ATP), % of control":73.3,"Call":"inactive"}
{"Gene":"Cplx2 (complexin 2)","PubChem SID":"SID363564550","GFP, % of control":33,"viability (ATP), % of control":46.9,"Call":"inactive"}
{"Gene":"Cplx2 (complexin 2)","PubChem SID":"SID363588095","GFP, % of control":113,"viability (ATP), % of control":106,"Call":"inactive"}
{"Gene":"Efcab11 (EF-hand calcium binding domain 11)","PubChem SID":"SID363543935","GFP, % of control":111,"viability (ATP), % of control":60.3,"Call":"inactive"}
{"Gene":"Efcab11 (EF-hand calcium binding domain 11)","PubChem SID":"SID363551671","GFP, % of control":71,"viability (ATP), % of control":66.8,"Call":"inactive"}
{"Gene":"Efcab11 (EF-hand calcium binding domain 11)","PubChem SID":"SID363559276","GFP, % of control":81.5,"viability (ATP), % of control":59.3,"Call":"inactive"}
{"Gene":"Rictor (RPTOR independent companion of MTOR, complex 2)","PubChem SID":"SID363542483","GFP, % of control":69.8,"viability (ATP), % of control":67.6,"Call":"inactive"}
{"Gene":"Rictor (RPTOR independent companion of MTOR, complex 2)","PubChem SID":"SID363551974","GFP, % of control":71.9,"viability (ATP), % of control":48.3,"Call":"inactive"}
{"Gene":"Rictor (RPTOR independent companion of MTOR, complex 2)","PubChem SID":"SID363559579","GFP, % of control":124,"viability (ATP), % of control":104,"Call":"active"}
{"Gene":"Gpaa1 (GPI anchor attachment protein 1)","PubChem SID":"SID363540027","GFP, % of control":75.6,"viability (ATP), % of control":73.9,"Call":"inactive"}
{"Gene":"Gpaa1 (GPI anchor attachment protein 1)","PubChem SID":"SID363561328","GFP, % of control":96,"viability (ATP), % of control":70.7,"Call":"inactive"}
{"Gene":"Gpaa1 (GPI anchor attachment protein 1)","PubChem SID":"SID363564364","GFP, % of control":44.8,"viability (ATP), % of control":47.8,"Call":"inactive"}

6 entries already listed, ordered by “viability (ATP), % of control”, highest first.
{"Gene":"Pa2g4 (proliferation-associated 2G4)","PubChem SID":"SID363569209","GFP, % of control":120,"viability (ATP), % of control":122,"Call":"inactive"}
{"Gene":"Tmem91 (transmembrane protein 91)","PubChem SID":"SID363548010","GFP, % of control":79.1,"viability (ATP), % of control":87.8,"Call":"inactive"}
{"Gene":"Ifi203 (interferon activated gene 203)","PubChem SID":"SID363587511","GFP, % of control":86.2,"viability (ATP), % of control":84.5,"Call":"inactive"}
{"Gene":"Pa2g4 (proliferation-associated 2G4)","PubChem SID":"SID363583641","GFP, % of control":76.3,"viability (ATP), % of control":80.9,"Call":"inactive"}
{"Gene":"Ifi203 (interferon activated gene 203)","PubChem SID":"SID363563965","GFP, % of control":83.2,"viability (ATP), % of control":76.6,"Call":"inactive"}
{"Gene":"Ifi203 (interferon activated gene 203)","PubChem SID":"SID363555304","GFP, % of control":73.3,"viability (ATP), % of control":61.3,"Call":"inactive"}
